Assay results as given in patent US9315481B2, “Compounds and methods for treating leukemia” (INDIANA UNIVERSITY RESEARCH AND TECHNOLOGY CORPORATION, priority 2012, dated 2016).
Some of these results come from one statement about several compounds together. Some ranges recur; such a range may be that of the whole group of compounds.

Test: Maximum tolerated dose (MTD)
Settings: single dose and multiple dosing protocols (2 week studies)
Description: Maximum tolerated dose (MTD). […] Animals were monitored for up to 14 days after termination of dosing.

COC1=C(C=C(C)C(=O)N(C)C)C(=O)c2ccccc2C1=O [Example 5a]
well tolerated oral doses: 150 to 200 mg/kg/day

CCCC(=CC1=C(OC)C(=O)c2ccccc2C1=O)C(=O)N(CC)CC [Example 5c]
well tolerated oral doses: 150 to 200 mg/kg/day

CCCC(=CC1=C(OC)C(=O)c2ccccc2C1=O)C(=O)N(C)C [Example 5e]
well tolerated oral doses: 150 to 200 mg/kg/day

CCCCCCCCC/C(=C\C1=C(C)C(=O)C(OC)=C(OC)C1=O)C(=O)O [Example E3330, reference compound]
well tolerated oral doses: 150 to 200 mg/kg/day
